Measurements reported in patent US20070093415A1.
Results are given in words; binding and its absence hold for the method and conditions named. Some entries that bind do so weakly or less than the wild type.

Chains of the proteins cited; added tags and fusions are not shown. Residues count along the entry.
UniProt P05067, residues 672-713: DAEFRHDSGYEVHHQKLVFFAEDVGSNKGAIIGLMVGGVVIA

Columns and labels:
[1] = biological target: Aβ amyloid in amyloid plaques of Alzheimer's disease brain (human) (UniProt P05067); test: staining of AD brain sections
[2] = biological target: Aβ amyloid in amyloid plaques of Alzheimer's disease brain (human) (UniProt P05067); test: staining of AD brain sections with biotin peptide and streptavidin-alkaline phosphatase
[3] = biological target: Aβ amyloid in amyloid plaques of Alzheimer's disease brain (human) (UniProt P05067); test: staining of AD brain sections, FIG. 6

binding [1]: binds
binding [2]: binds
binding [3]: binds
Binder: AECDWGKGGRWRLWPGASGKTEACGP (N-terminal biotin; the flanking cysteines can form a disulfide bond) [Biotin-…]
